Assay results taken from the supplement of paper PMC9233669.
This sample is rich in variants without activity.

How the values were obtained:
biotinyl-Trp-oxazolone = experiment: self-aminoacylation, catalytic enhancement (BWO) (fold over background); higher = more active; k-Seq, kA / k0A0; sequences stand for … in GGGAAUGGAUCCACAUCUACGAAUUC…UUCACUGCAGACUUGACGAAGCUG
Method in brief: (§1)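 Mutagenized RNA pools (0.43 μM; 21-nt variable region) were treated with 2–1250 μM of each biotinyl-aminoacyl-oxazolone. Conditions were 50 μL HEPES/NaCl/KCl/MgCl2/CaCl2 buffer, 5% acetonitrile, pH 6.9–7.0, room temperature, 90 minutes. Catalytic enhancement, the median kA relative to the uncatalyzed rate, was derived from streptavidin capture, qPCR and Illumina sequencing.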

biotinyl-Phe-oxazolone = experiment: self-aminoacylation, catalytic enhancement (BFO) (fold over background); higher = more active; k-Seq, kA / k0A0; sequences stand for … in GGGAAUGGAUCCACAUCUACGAAUUC…UUCACUGCAGACUUGACGAAGCUG
Method in brief: as §1

biotinyl-Leu-oxazolone = experiment: self-aminoacylation, catalytic enhancement (BLO) (fold over background); higher = more active; k-Seq, kA / k0A0; sequences stand for … in GGGAAUGGAUCCACAUCUACGAAUUC…UUCACUGCAGACUUGACGAAGCUG
Method in brief: as §1

biotinyl-Val-oxazolone = experiment: self-aminoacylation, catalytic enhancement (BVO) (fold over background); higher = more active; k-Seq, kA / k0A0; sequences stand for … in GGGAAUGGAUCCACAUCUACGAAUUC…UUCACUGCAGACUUGACGAAGCUG
Method in brief: as §1

biotinyl-Met-oxazolone = experiment: self-aminoacylation, catalytic enhancement (BMO) (fold over background); higher = more active; k-Seq, kA / k0A0; sequences stand for … in GGGAAUGGAUCCACAUCUACGAAUUC…UUCACUGCAGACUUGACGAAGCUG
Method in brief: as §1

biotinyl-Ile-oxazolone = experiment: self-aminoacylation, catalytic enhancement (BIO) (fold over background); higher = more active; k-Seq, kA / k0A0; sequences stand for … in GGGAAUGGAUCCACAUCUACGAAUUC…UUCACUGCAGACUUGACGAAGCUG
Method in brief: as §1

| Sequence | self-aminoacylation (biotinyl-Trp-oxazolone) | self-aminoacylation (biotinyl-Phe-oxazolone) | self-aminoacylation (biotinyl-Leu-oxazolone) | self-aminoacylation (biotinyl-Val-oxazolone) | self-aminoacylation (biotinyl-Met-oxazolone) | self-aminoacylation (biotinyl-Ile-oxazolone) |
| --- | --- | --- | --- | --- | --- | --- |
| AUACUUUAAACAAUCGGUCUG [Fam1A.1 aminoacylation ribozyme variant] | 0.872 | 1.16 | 0.715 | 0.893 | 0.95 | 0.907 |
| CUAUUUCAAACAAUCUGUCUG [Fam1A.1 aminoacylation ribozyme variant] | 0.623 | 1.3 | 0.653 | 0.804 | 0.638 | 0.786 |
| GUUCACCUAGGUCAUCGGGUC [Fam2.2 aminoacylation ribozyme variant] | 0.681 | 1.16 | 1.36 | 1.34 | 1.03 | 1.28 |
| CUACUUCUAACAAUCGGGCUG [Fam1A.1 aminoacylation ribozyme variant] | 0.88 | 0.537 | 0.85 | 1.23 | 1.05 | 0.945 |
| GAGUUUGCUAAUAGUGGCAAG [Fam3.1 aminoacylation ribozyme variant] | 1 | 0.97 | 0.652 | 0.738 | 0.767 | 0.929 |
| AAGUCUGCUACUAGUCGCAAG [Fam3.1 aminoacylation ribozyme variant] | 0.731 | 0.846 | 1.15 | 0.84 | 0.856 | 0.699 |
| AAGUUUGCUAAUAGUUGCAAG [Fam3.1 aminoacylation ribozyme variant] | 0.998 | 1.42 | 0.872 | 0.975 | 1.03 | 1.01 |
| AUACACCUAGGUCAUCGGGAG [Fam2.2 aminoacylation ribozyme variant] | 1.09 | 0.298 | 1.65 | 0.949 | 0.86 | 1.28 |
| AUUACCCUGUUCAUUGAGUGA [Fam2.1 aminoacylation ribozyme variant] | 16.3 | 83.6 | 12.7 | 5.4 | 13.8 | 5.73 |
| CUACUUCAAACAAGCGGUAUG [Fam1A.1 aminoacylation ribozyme variant] | 0.632 | 0.975 | 0.715 | 0.826 | 1.15 | 0.894 |
| AUUCCCCUGGUCAUCGAGUCA [Fam2.1 aminoacylation ribozyme variant] | 0.967 | 0.591 | 1.13 | 1.13 | 1.23 | 1.34 |
| AUUACCCUGGUCAUCCAUUGA [Fam2.1 aminoacylation ribozyme variant] | 0.684 | 1.15 | 1.14 | 1.08 | 0.84 | 1.08 |
| AAGUUUGCUAAUACUCGCUAG [Fam3.1 aminoacylation ribozyme variant] | 0.445 | 0.624 | 0.594 | 0.507 | 0.532 | 0.63 |
| ACACACUUCGAGCAAUCGGUC [Fam1B.1 aminoacylation ribozyme variant] | 1.38 | 1.51 | 1.74 | 1.58 | 1.35 | 1.39 |
| AAGUUUGCUAAUAGUUGCAGG [Fam3.1 aminoacylation ribozyme variant] | 1.23 | 1.72 | 1.64 | 1.17 | 1.06 | 1.45 |
| CUCCUUCAGACAAUCGGUCUG [Fam1A.1 aminoacylation ribozyme variant] | 0.922 | 1.02 | 1.23 | 1.11 | 1.07 | 0.994 |
| AUUCACCAAGGUCAUCGGGCG [Fam2.2 aminoacylation ribozyme variant] | 3.82 | 16 | 4.59 | 3.64 | 4.07 | 3.24 |
| CUCCUUCUAACAAUCGGUCUG [Fam1A.1 aminoacylation ribozyme variant] | 0.718 | 0.914 | 0.508 | 0.651 | 0.541 | 0.634 |
| AAGUUUGCCAAGAGUCGCAAG [Fam3.1 aminoacylation ribozyme variant] | 1.49 | 1.08 | 1.43 | 1.04 | 0.829 | 1.17 |
| CCUCACUUCAAGCCAUCGGUC [Fam1B.1 aminoacylation ribozyme variant] | 0.951 | 1.22 | 0.988 | 0.954 | 0.917 | 0.943 |
| AAUUUUGCAAAUAGUCGCAAG [Fam3.1 aminoacylation ribozyme variant] | 2.48 | 2.73 | 1.51 | 2.31 | 2.02 | 2.33 |
| CUACUUCUAACAAUCGGCCUG [Fam1A.1 aminoacylation ribozyme variant] | 1.05 | 1.01 | 1.31 | 1.2 | 0.997 | 1.09 |
| AAGUUUGCUAUUAGCCGCAAG [Fam3.1 aminoacylation ribozyme variant] | 0.62 | 0.714 | 0.834 | 0.634 | 0.683 | 0.766 |
| CUACGUCAAACUAUCGGUCUG [Fam1A.1 aminoacylation ribozyme variant] | 1.58 | 5.88 | 1.72 | 1.76 | 1.95 | 1.58 |
| CUACUUCAACCGAUCGGUCUG [Fam1A.1 aminoacylation ribozyme variant] | 1.43 | 1.14 | 0.788 | 0.917 | 0.979 | 0.763 |
| AAGUUAGCUAUUAGUCGCAAG [Fam3.1 aminoacylation ribozyme variant] | 1.74 | 2.06 | 1.82 | 1.6 | 1.34 | 1.99 |

| Sequence | self-aminoacylation (biotinyl-Trp-oxazolone) | self-aminoacylation (biotinyl-Phe-oxazolone) | self-aminoacylation (biotinyl-Leu-oxazolone) | self-aminoacylation (biotinyl-Val-oxazolone) | self-aminoacylation (biotinyl-Met-oxazolone) | self-aminoacylation (biotinyl-Ile-oxazolone) |
| --- | --- | --- | --- | --- | --- | --- |
| AUUCACCUGGGUCAUCGGGUU [Fam2.2 aminoacylation ribozyme variant] | 7.09 | 17.4 | 9.06 | 5.13 | 6.89 | 4.39 |
| AAGUUUGCUAAGAGCCGCAAG [Fam3.1 aminoacylation ribozyme variant] | 0.83 | 1.1 | 0.614 | 0.695 | 0.806 | 0.622 |
| AAGUUUGCUAGUAGUCGCUAG [Fam3.1 aminoacylation ribozyme variant] | 0.8 | 1.34 | 1.04 | 0.794 | 0.796 | 0.758 |
| CUACUCCAAACAAUCGGUCCG [Fam1A.1 aminoacylation ribozyme variant] | 1.54 | 1.11 | 0.961 | 0.895 | 1.06 | 0.891 |
| CGACACGUCAAGCAAUCGGUC [Fam1B.1 aminoacylation ribozyme variant] | 1.34 | 0.887 | 1.03 | 1.64 | 1.21 | 1.6 |
| CUACUCCAAACCAUCGGUCUG [Fam1A.1 aminoacylation ribozyme variant] | 1.01 | 1.16 | 1.03 | 0.971 | 0.961 | 1.1 |
| AAAUUUGCUAAUAGCCGCAAG [Fam3.1 aminoacylation ribozyme variant] | 1.27 | 1.51 | 1.16 | 1.38 | 1.16 | 1.86 |
| CUAAUUCAAACACUCGGUCUG [Fam1A.1 aminoacylation ribozyme variant] | 0.625 | 0.867 | 0.913 | 0.955 | 0.846 | 0.918 |
| CAGUUCGCUAAUAGUCGCAAG [Fam3.1 aminoacylation ribozyme variant] | 1.88 | 1.4 | 1.8 | 1.38 | 1.74 | 1.68 |
| AAGUUUGGUAAUAGUUGCAAG [Fam3.1 aminoacylation ribozyme variant] | 1.07 | 1.46 | 0.941 | 0.952 | 1 | 1.19 |
| AUUACACUGGACAUCGAGUGA [Fam2.1 aminoacylation ribozyme variant] | 6.45 | 14.9 | 6.11 | 2.87 | 5.83 | 3.23 |
| CUACUUCAAACAAUUGGUAUG [Fam1A.1 aminoacylation ribozyme variant] | 0.533 | 0.89 | 0.755 | 0.778 | 0.899 | 0.888 |
| CCACACUUCCAGCAAUGGGUC [Fam1B.1 aminoacylation ribozyme variant] | 0.884 | 1.22 | 0.88 | 1.38 | 0.956 | 1.34 |
| CAACCCUUCAAGCAAUCGGUC [Fam1B.1 aminoacylation ribozyme variant] | 2.72 | 2.9 | 1.42 | 1.44 | 1.22 | 1.42 |
| ACGUUUGCUAAUAGUAGCAAG [Fam3.1 aminoacylation ribozyme variant] | 1.98 | 1.86 | 1.46 | 1.36 | 1.47 | 1.62 |
| AUUCACCUAGGACGUCGGGUG [Fam2.2 aminoacylation ribozyme variant] | 1.42 | 9.18 | 1.91 | 1.88 | 1.91 | 1.66 |
| CCACACUUCAAGCAAUCGUUU [Fam1B.1 aminoacylation ribozyme variant] | 1.1 | 0.913 | 0.785 | 1.22 | 0.937 | 1.29 |
| CCACACUUCAAGGAAUCGCUC [Fam1B.1 aminoacylation ribozyme variant] | 1.59 | 0.771 | 1.99 | 1.44 | 1.48 | 1.62 |
| AUUACUCUGGUCAUCGAGCGA [Fam2.1 aminoacylation ribozyme variant] | 1.09 | 0.95 | 1.71 | 1.34 | 1.63 | 1.52 |
| AAAUUUGGUAAUAGUCGCAAG [Fam3.1 aminoacylation ribozyme variant] | 2.27 | 2.12 | 1.86 | 1.74 | 1.88 | 2.2 |
| CUACUUCAAACACUUGGUCUG [Fam1A.1 aminoacylation ribozyme variant] | 0.555 | 0.487 | 0.713 | 0.686 | 0.633 | 0.712 |
| CGACUCCAAACAAUCGGUCUG [Fam1A.1 aminoacylation ribozyme variant] | 3.11 | 3.55 | 1.14 | 1.46 | 1.18 | 1.1 |
| CCACACUUCACUCAAUCGGUC [Fam1B.1 aminoacylation ribozyme variant] | 0.649 | 0.527 | 0.628 | 0.694 | 0.59 | 0.705 |
| CUACUUCAUCCAAUCGGUCUG [Fam1A.1 aminoacylation ribozyme variant] | 0.414 | 0.483 | 0.533 | 0.709 | 0.76 | 0.706 |
| CUGCUUCGAACAAUCGGUCUG [Fam1A.1 aminoacylation ribozyme variant] | 0.843 | 1.36 | 0.787 | 0.77 | 0.779 | 0.727 |
